The values below come from US20250283871A1, “COMPOSITIONS AND METHODS FOR MODULATING THE INTERACTION BETWEEN SS18-SSX FUSION ONCOPROTEIN AND NUCLEOSOMES” (Dana-Farber Cancer Institute, Inc., priority 2020, published 2025).

The subject of this data set is BAF complex subunits and histone proteins. Kind of data set: Mass spectrometry proteomics of purified HA-SS18 WT and HA-SS18-SSX1 complexes (Tables 5A-5E). Also on record: species or system human. Particulars: for Total / Unique: HA-SS18SSX1_CHR_peptides; for Total: total peptides of the identified protein; for Unique: unique peptides of the identified protein.
Setting [1] is: HA-SS18WT_CHR_peptides: protein identified in HA-SS18 WT BAF complex purification from nuclease-treated solubilized chromatin (CHR), HEK-293T.
[2] abbreviates: HA-SS18SSX1_CHR_peptides: protein identified in the HA-SS18-SSX1 purification from solubilized chromatin (CHR), HEK-293T.
Where [3] appears, read: HA-SS18SSX1 purification, NE (soluble nuclear extract) fraction, HEK-293T, peptides per identified protein.
Where [4] appears, read: HA-SS18WT_CHR_peptides: HA-SS18 WT purification from nuclease-treated solubilized chromatin (CHR), HEK-293T, label = protein identified.
Where [5] appears, read: HA-SS18WT_NE_peptides: HA-SS18 WT complexes purified from nuclear extract (NE), HEK-293T, label = protein identified (Gene Symbol).
[6] abbreviates: HA-SS18SSX1_NE_peptides: protein co-purified with HA-SS18-SSX1 BAF complexes from soluble nuclear extract (NE), HEK-293T cells.
Where [7] appears, read: HA-SS18WT_NE_peptides: proteins co-purified with HA-SS18 WT from nuclear extract (NE), HEK-293T.

B1: CLASRP (protein, UniProt Q8N2M8 1-674, looked up)
CLK4-associating …: MWHEARKHERKLRGMMVDYKKRAERRREYYEKIKKDPAQFLQVHGRACKVHLDSAVALAAESPVNMMPWQGDTNNMIDRFDVRAHLDHIPDYTPPLLTTISPEQESDERKCNYERYRGLVQNDFAGISEEQCLYQIYIDELYGGLQRPSEDEKKKLAEKKASIGYTYEDSTVAEVEKAAEKPEEEESAAEEESNSDEDEVIPDIDVEVDVDELNQEQVADLNKQATTYGMADGDFVRMLRKDKEEAEAIKHAKALEEEKAMYSGRRSRRQRREFREKRLRGRKISPPSYARRDSPTYDPYKRSPSESSSESRSRSRSPTPGREEKITFITSFGGSDEEAAAAAAAAAASGVTTGKPPAPPQPGGPAPGRNASARRRSSSSSSSSSASRTSSSRSSSRSSSRSRRGGGYYRSGRHARSRSRSWSRSRSRSRRYSRSRSRGRRHSGGGSRDGHRYSRSPARRGGYGPRRRSRSRSHSGDRYRRGGRGLRHHSSSRSRSSWSLSPSRSRSLTRSRSHSPSPSQSRSRSRSRSQSPSPSPAREKLTRPAASPAVGEKLKKTEPAAGKETGAAKPKLTPQEKLKLRMQKALNRQFKADKKAAQEKMIQQEHERQEREDELRAMARKIRMKERERREKEREEWERQYSRQSRSPSPRYSREYSSSRRRSRSRSRSPHYRH
Consider B1, for which the Total is listed as 2 and the Unique is listed as 2. Under setting [1], the “Total (total peptides)” value is 1 and the “Unique (unique peptides)” value is 1.

B2: LMNB1 (protein, UniProt P20700 2-583, looked up)
Lamin-B1: ATATPVPPRMGSRAGGPTTPLSPTRLSRLQEKEELRELNDRLAVYIDKVRSLETENSALQLQVTEREEVRGRELTGLKALYETELADARRALDDTARERAKLQIELGKCKAEHDQLLLNYAKKESDLNGAQIKLREYEAALNSKDAALATALGDKKSLEGDLEDLKDQIAQLEASLAAAKKQLADETLLKVDLENRCQSLTEDLEFRKSMYEEEINETRRKHETRLVEVDSGRQIEYEYKLAQALHEMREQHDAQVRLYKEELEQTYHAKLENARLSSEMNTSTVNSAREELMESRMRIESLSSQLSNLQKESRACLERIQELEDLLAKEKDNSRRMLTDKEREMAEIRDQMQQQLNDYEQLLDVKLALDMEISAYRKLLEGEEERLKLSPSPSSRVTVSRASSSRSVRTTRGKRKRVDVEESEASSSVSISHSASATGNVCIEEIDVDGKFIRLKNTSEQDQPMGGWEMIRKIGDTSVSYKYTSRYVLKAGQTVTIWAANAGVTASPPTDLIWKNQNSWGTGEDVKVILKNSQGEEVAQRSTVFKTTIPEEEEEEEEAAGVVVEEELFHQQGTPRASNRSC
For the molecule B2, under setting [2], the “Total (total peptides)” value is listed as 33 and the “Unique (unique peptides)” value came to 21. Also, under setting [3], the “Total (total peptides)” value came out at 17 and the “Unique (unique peptides)” value is given as 16. Besides, under setting [4], the “Total (peptides)” value stood at 13 and the “Unique (peptides)” value was found to be 13. Besides, under setting [5], the “Total (peptides)” value is on record as 17 and the “Unique (peptides)” value is 12.

B3: ZNF687 (protein, UniProt Q8N1G0 1-1237, looked up)
Zinc finger protein 687: MGDMKTPDFDDLLAAFDIPDIDANEAIHSGPEENEGPGGPGKPEPGVGSESEDTAAASAGDGPGVPAQASDHGLPPPDISVVSVIVKNTVCPEQSEALAGGSAGDGAQAAGVTKEGPVGPHRMQNGFGSPEPSLPGTPHSPAPPSGGTWKEKGMEGKTPLDLFAHFGPEPGDHSDPLPPSAPSPTREGALTPPPFPSSFELAQENGPGMQPPVSSPPLGALKQESCSPHHPQVLAQQGSGSSPKATDIPASASPPPVAGVPFFKQSPGHQSPLASPKVPVCQPLKEEDDDEGPVDKSSPGSPQSPSSGAEAADEDSNDSPASSSSRPLKVRIKTIKTSCGNITRTVTQVPSDPDPPAPLAEGAFLAEASLLKLSPATPTSEGPKVVSVQLGDGTRLKGTVLPVATIQNASTAMLMAASVARKAVVLPGGTATSPKMIAKNVLGLVPQALPKADGRAGLGTGGQKVNGASVVMVQPSKTATGPSTGGGTVISRTQSSLVEAFNKILNSKNLLPAYRPNLSPPAEAGLALPPTGYRCLECGDAFSLEKSLARHYDRRSMRIEVTCNHCARRLVFFNKCSLLLHAREHKDKGLVMQCSHLVMRPVALDQMVGQPDITPLLPVAVPPVSGPLALPALGKGEGAITSSAITTVAAEAPVLPLSTEPPAAPATSAYTCFRCLECKEQCRDKAGMAAHFQQLGPPAPGATSNVCPTCPMMLPNRCSFSAHQRMHKNRPPHVCPECGGNFLQANFQTHLREACLHVSRRVGYRCPSCSVVFGGVNSIKSHIQTSHCEVFHKCPICPMAFKSGPSAHAHLYSQHPSFQTQQAKLIYKCAMCDTVFTHKPLLSSHFDQHLLPQRVSVFKCPSCPLLFAQKRTMLEHLKNTHQSGRLEETAGKGAGGALLTPKTEPEELAVSQGGAAPATEESSSSSEEEEVPSSPEPPRPAKRPRRELGSKGLKGGGGGPGGWTCGLCHSWFPERDEYVAHMKKEHGKSVKKFPCRLCERSFCSAPSLRRHVRVNHEGIKRVYPCRYCTEGKRTFSSRLILEKHVQVRHGLQLGAQSPGRGTTLARGSSARAQGPGRKRRQSSDSCSEEPDSTTPPAKSPRGGPGSGGHGPLRYRSSSSTEQSLMMGLRVEDGAQQCLDCGLCFASPGSLSRHRFISHKKRRGVGKASALGLGDGEEEAPPSRSDPDGGDSPLPASGGPLTCKVCGKSCDSPLNLKTHFRTHGMAFIRARQGAVGDN
B3 gave a Total of 2 and a Unique of 2. Besides, under setting [1], the “Total (total peptides)” value came out at 1 and the “Unique (unique peptides)” value came to 1.

B4: DIMT1 (protein, UniProt Q9UNQ2 1-313, looked up)
Dimethyladenosine transferase: MPKVKSGAIGRRRGRQEQRRELKSAGGLMFNTGIGQHILKNPLIINSIIDKAALRPTDVVLEVGPGTGNMTVKLLEKAKKVVACELDPRLVAELHKRVQGTPVASKLQVLVGDVLKTDLPFFDTCVANLPYQISSPFVFKLLLHRPFFRCAILMFQREFALRLVAKPGDKLYCRLSINTQLLARVDHLMKVGKNNFRPPPKVESSVVRIEPKNPPPPINFQEWDGLVRITFVRKNKTLSAAFKSSAVQQLLEKNYRIHCSVHNIIIPEDFSIADKIQQILTSTGFSDKRARSMDIDDFIRLLHGFNAEGIHFS
With B4, the Total came to 2 and the Unique was determined as 2. Moreover, under setting [6], the “Total (peptides)” value came to 1 and the “Unique (peptides)” value is given as 1. Besides, under setting [1], the “Total (total peptides)” value is 2 and the “Unique (unique peptides)” value is given as 2. Moreover, under setting [7], the “Total (peptides)” value worked out at 2 and the “Unique (peptides)” value turned out to be 2.

B5: HNRNPA1L2 (protein)
chain: MSKSASPKEPEQLRKLFIGGLSFETTDESLRSHFEQWGTLTDCVVMRDPNTKRSRGFGFVTYATVEEVDAAMNTTPHKVDGRVVEPKRAVSREDSQRPGAHLTVKKIFVGGIKEDTEEHHLRDYFEQYGKIEVIEIMTDRGSGKKRGFAFVTFDDHDSVDKIVIQKYHTVKGHNCEVRKALPKQEMASASSSQRGRRGSGNFGGGRGDGFGGNDNFGRGGNFSGRGGFGGSCGGGGYGGSGDGYNGFGNDGSNFGGGGSYNDFGNYNNQSSNFGPMKGGNFGGRSSGPYGGGGQYFAKPQNQGGYGVSSSSSSYGSGRRF
On to B5, for which the Total came out at 2 and the Unique was 2. Besides, under setting [1], the “Total (total peptides)” value is on record as 1 and the “Unique (unique peptides)” value worked out at 1.

B6: PPIG (protein, UniProt Q13427 1-754, looked up)
Peptidyl-prolyl cis-trans …: MGIKVQRPRCFFDIAINNQPAGRVVFELFSDVCPKTCENFRCLCTGEKGTGKSTQKPLHYKSCLFHRVVKDFMVQGGDFSEGNGRGGESIYGGFFEDESFAVKHNKEFLLSMANRGKDTNGSQFFITTKPTPHLDGHHVVFGQVISGQEVVREIENQKTDAASKPFAEVRILSCGELIPKSKVKKEEKKRHKSSSSSSSSSSDSDSSSDSQSSSDSSDSESATEEKSKKRKKKHRKNSRKHKKEKKKRKKSKKSASSESEAENLEAQPQSTVRPEEIPPIPENRFLMRKSPPKADEKERKNRERERERECNPPNSQPASYQRRLLVTRSGRKIKGRGPRRYRTPSRSRSRDRFRRSETPPHWRQEMQRAQRMRVSSGERWIKGDKSELNEIKENQRSPVRVKERKITDHRNVSESPNRKNEKEKKVKDHKSNSKERDIRRNSEKDDKYKNKVKKRAKSKSRSKSKEKSKSKERDSKHNRNEEKRMRSRSKGRDHENVKEKEKQSDSKGKDQERSRSKEKSKQLESKSNEHDHSKSKEKDRRAQSRSRECDITKGKHSYNSRTRERSRSRDRSRRVRSRTHDRDRSRSKEYHRYREQEYRRRGRSRSRERRTPPGRSRSKDRRRRRRDSRSSEREESQSRNKDKYRNQESKSSHRKENSESEKRMYSKSRDHNSSNNSREKKADRDQSPFSKIKQSSQDNELKSSMLKNKEDEKIRSSVEKENQKSKGQENDHVHEKNKKFDHESSPGTDEDKSG
For the molecule B6, the Total is 2 and the Unique is 2.

B7: BANF1 (protein, UniProt O75531 1-89, looked up)
Barrier-to-autointegration …: MTTSQKHRDFVAEPMGEKPVGSLAGIGEVLGKKLEERGFDKAYVVLGQFLVLKKDEDLFREWLKDTCGANAKQSRDCFGCLREWCDAFL
As for B7, the Total is listed as 2 and the Unique amounted to 2. Under setting [6], the “Total (peptides)” value is 1 and the “Unique (peptides)” value worked out at 1.

B8: SLC25A5 (protein, UniProt P05141 1-298, looked up)
ADP/ATP translocase 2: MTDAAVSFAKDFLAGGVAAAISKTAVAPIERVKLLLQVQHASKQITADKQYKGIIDCVVRIPKEQGVLSFWRGNLANVIRYFPTQALNFAFKDKYKQIFLGGVDKRTQFWLYFAGNLASGGAAGATSLCFVYPLDFARTRLAADVGKAGAEREFRGLGDCLVKIYKSDGIKGLYQGFNVSVQGIIIYRAAYFGIYDTAKGMLPDPKNTHIVISWMIAQTVTAVAGLTSYPFDTVRRRMMMQSGRKGTDIMYTGTLDCWRKIARDEGGKAFFKGAWSNVLRGMGGAFVLVLYDEIKKYT
B8 gave a Total of 2 and a Unique of 2. In addition, under setting [3], the “Total (total peptides)” value is on record as 12 and the “Unique (unique peptides)” value is listed as 2. Under setting [1], the “Total (total peptides)” value came to 2 and the “Unique (unique peptides)” value was determined as 2. In addition, under setting [5], the “Total (peptides)” value was 8 and the “Unique (peptides)” value is 3.
